According to paper PMC9282937:
No constants are given. Whether binding was seen depends on the method and setting. In cells and extracts the contact can be indirect. Some entries that bind do so weakly or less than the wild type.

Sequences of proteins named here, by UniProt entry; tags and fusion partners are left off.
UniProt Q12778: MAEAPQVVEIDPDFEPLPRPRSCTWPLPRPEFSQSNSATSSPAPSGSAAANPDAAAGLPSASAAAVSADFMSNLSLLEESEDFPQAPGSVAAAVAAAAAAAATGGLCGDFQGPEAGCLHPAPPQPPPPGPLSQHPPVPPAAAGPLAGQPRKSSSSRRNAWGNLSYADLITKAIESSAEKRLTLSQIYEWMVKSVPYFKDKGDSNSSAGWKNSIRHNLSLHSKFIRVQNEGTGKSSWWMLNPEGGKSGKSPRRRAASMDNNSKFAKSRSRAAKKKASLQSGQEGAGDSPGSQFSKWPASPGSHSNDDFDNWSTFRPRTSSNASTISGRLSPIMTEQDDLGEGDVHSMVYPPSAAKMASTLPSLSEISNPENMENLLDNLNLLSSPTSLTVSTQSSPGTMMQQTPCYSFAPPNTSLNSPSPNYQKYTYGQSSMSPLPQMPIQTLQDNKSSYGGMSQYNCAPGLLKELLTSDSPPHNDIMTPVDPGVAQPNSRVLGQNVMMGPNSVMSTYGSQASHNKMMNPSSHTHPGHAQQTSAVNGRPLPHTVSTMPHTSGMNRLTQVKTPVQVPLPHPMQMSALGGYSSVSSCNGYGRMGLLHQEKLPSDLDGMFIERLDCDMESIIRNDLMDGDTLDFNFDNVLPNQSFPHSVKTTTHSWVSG

Biological target: T1, STAT6 (human (endogenous in THP-1)) (UniProt P42226)
T1 sequence: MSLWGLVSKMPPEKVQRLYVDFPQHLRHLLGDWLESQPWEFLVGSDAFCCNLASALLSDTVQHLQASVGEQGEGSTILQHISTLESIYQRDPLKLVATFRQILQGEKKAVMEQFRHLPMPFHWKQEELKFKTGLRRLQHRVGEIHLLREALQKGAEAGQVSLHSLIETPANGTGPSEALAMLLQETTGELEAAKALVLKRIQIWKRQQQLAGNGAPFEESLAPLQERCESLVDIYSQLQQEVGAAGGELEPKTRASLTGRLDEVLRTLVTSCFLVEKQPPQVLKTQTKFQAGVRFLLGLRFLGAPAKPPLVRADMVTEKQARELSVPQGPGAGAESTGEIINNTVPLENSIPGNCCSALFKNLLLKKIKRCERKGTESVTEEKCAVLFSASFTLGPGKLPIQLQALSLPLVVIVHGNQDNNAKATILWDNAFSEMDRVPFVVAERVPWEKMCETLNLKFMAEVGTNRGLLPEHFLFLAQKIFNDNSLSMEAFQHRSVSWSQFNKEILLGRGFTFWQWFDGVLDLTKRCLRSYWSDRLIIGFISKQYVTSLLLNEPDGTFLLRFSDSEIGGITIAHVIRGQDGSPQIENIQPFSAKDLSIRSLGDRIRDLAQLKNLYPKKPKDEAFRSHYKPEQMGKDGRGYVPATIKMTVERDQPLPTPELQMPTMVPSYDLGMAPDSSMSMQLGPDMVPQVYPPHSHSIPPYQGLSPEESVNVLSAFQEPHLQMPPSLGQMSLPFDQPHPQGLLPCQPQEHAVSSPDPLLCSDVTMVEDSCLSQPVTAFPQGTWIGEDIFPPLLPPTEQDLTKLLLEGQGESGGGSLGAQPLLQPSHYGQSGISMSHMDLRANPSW
Assay: co-IP; THP-1 macrophage lysates; precipitation with anti-STAT6 or anti-FOXO1 antibody against control IgG, immunoblots with anti-FOXO1 and anti-STAT6

binding: binds
Substance: FOXO1 (from UniProt Q12778 1-655)
